# PubChem BioAssay AID504804, Drosophila RNAi Screening Center, 2011
# Test: 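Knock-downs shielding fly cells from apoptosis caused by DNA damage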 (primary screen)
# System: Drosophila Kc cells
# Knock-down reagent: long dsRNA against Drosophila genes, 0.5 µg dsRNA per well
# Duration: 96 h (48 h knock-down, then 48 h drug)
# Conditions: doxorubicin 5 µg/ml for 48 h, added 48 h after dsRNA
# Detection: 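Viability measured as cellular ATP by luminescence after 48 h knock-down then 48 h doxorubicin at 5 µg/ml; unnormalised plate counts for each replicate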
# Reading the numbers: raw ATP luminescence: higher = more viable cells, protection from doxorubicin
# Active means: 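z-score of 2 or more over plate mean in both duplicates, retained only when retests and separate dsRNAs confirm the protection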
# In all, the deposit lists about 19,000 reagents; shown is a random part of those with a known target gene and a result. In the full data, 47 (0.25%) were called active. 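Signals are raw, not normalised; exact z-scores behind calls not deposited; actives needed confirmation, so some wells reaching 2 SD are inactive.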 A number with no mark means an inactive call. A plus sign joins genes that one reagent is predicted to hit.
target,dsRNA,"raw ATP luminescence, replicate 1","raw ATP luminescence, replicate 2"
Tsp42Ea,DRSC04982,40517,79820
Tsp42Ea,DRSC06792,49147,89480
CG34221,DRSC06150,41643,64397
blow,DRSC07586,84247,58320
Cht2,DRSC08650,68893,52407
msopa,DRSC11895,30180,30467
CG32112,DRSC09815,72733,73873
Tb,DRSC15815,33560,43470
CG8888,DRSC07294,66490,57290
CG18234,DRSC10309,99887,41947
Mical,DRSC14349,36943,59093
Mical,DRSC14351,35367,57997
Mical,DRSC15365,36507,51047
Mical,DRSC15366,36010,59400
CG11151,DRSC19387,2.30e5,2.11e5
CG12643,DRSC17849,4.04e5,2.96e5
mask,DRSC15370,63990,74490
mask,DRSC16005,49027,48967
mask,DRSC16018,64070,56410
Os-C,DRSC16778,63303,54097
CG15254,DRSC01870,63493,80783
Sec24CD,DRSC00300,83330,95730
Mst84Db,DRSC12542,70770,47600
Mst84Db,DRSC12598,61143,49750
Klp59C,DRSC04348,61153,63303
Pss,DRSC11757,68567,62330
GstE8,DRSC06678,47613,57263
CG31816,DRSC01547,2.80e5,2.42e5
primo-2 + primo-1,DRSC16511,66690,80630
mdlc,DRSC15690,39573,51717
CG43707,DRSC00280,25220,39020
CG3345,DRSC00596,1.04e5,65757
Prim1,DRSC11137,68493,74247
CG31211,DRSC14953,43933,19213
CG31211,DRSC15344,54653,56683
CG34204,DRSC03897,58123,53353
Dnz1,DRSC03317,88977,69283
mRpS7,DRSC02814,91867,84273
Obp99b,DRSC16264,39160,34160
Rab3-GEF,DRSC19954,3.13e5,2.90e5
Rab3-GEF,DRSC19955,2.82e5,3.44e5
Rab3-GEF,DRSC19956,1.31e5,1.35e5
Cp7Fb,DRSC18034,38640,39300
Ugt36A1,DRSC00748,23903,31520
GstD6,DRSC16687,48623,56763
CG17721,DRSC15253,58533,48277
CG9590,DRSC16506,49207,45730
sif,DRSC08759,1.52e5,1.54e5
sif,DRSC11395,75177,82960
Idgf3,DRSC03351,1.07e5,66383
lbm,DRSC07643,45803,58773
Pka-C1,DRSC03399,1.07e5,72023
CG12692,DRSC17881,36280,51920
drm,DRSC00277,33383,44043
Rpe,DRSC06407,63607,49167
CG15059,DRSC19633,3.89e5,2.48e5
Tgt,DRSC00672,98887,71013
CG13579,DRSC04215,46257,54780
Fancm,DRSC16348,47797,48030
Nubp1,DRSC02639,87273,66900
tomboy20,DRSC14913,60347,69040
CG31360,DRSC13255,1.53e5,2.41e5
Or67b,DRSC11241,86710,73847
Met,DRSC20284,3.48e5,3.09e5
defl,DRSC10300,53473,37260
Ugt307A1,DRSC02138,23073,27777
CG8818,DRSC07275,58050,48370
CG14989,DRSC08448,58950,42127
FAM21,DRSC06623,54570,57060
CG3939,DRSC18498,53190,37930
CG4390,DRSC15572,36067,36710
Tak1,DRSC20390,2.43e5,2.46e5
Tak1,DRSC20561,3.51e5,3.17e5
Tak1,DRSC20562,3.98e5,3.03e5
CG32856,DRSC13124,2.34e5,1.98e5
CG1965,DRSC12577,60697,19697
CG17283,DRSC15219,59360,82150
CG3306,DRSC10357,34600,33647
CG12535,DRSC17838,58390,60730
CG18649,DRSC10334,82923,52480
PpD3,DRSC16796,66560,65907
Saf-B,DRSC16167,38973,45090
SMC1,DRSC16846,71220,62320
emp,DRSC04019,89353,89263
emp,DRSC04683,71073,81893
